Experimental data from PMC6265295.

By UniProt entry, the sequences of proteins in these tests, tags left out. Where a name states a change or a piece, a line headed by the entry shows the natural chain unless it says otherwise.
UniProt Q28645: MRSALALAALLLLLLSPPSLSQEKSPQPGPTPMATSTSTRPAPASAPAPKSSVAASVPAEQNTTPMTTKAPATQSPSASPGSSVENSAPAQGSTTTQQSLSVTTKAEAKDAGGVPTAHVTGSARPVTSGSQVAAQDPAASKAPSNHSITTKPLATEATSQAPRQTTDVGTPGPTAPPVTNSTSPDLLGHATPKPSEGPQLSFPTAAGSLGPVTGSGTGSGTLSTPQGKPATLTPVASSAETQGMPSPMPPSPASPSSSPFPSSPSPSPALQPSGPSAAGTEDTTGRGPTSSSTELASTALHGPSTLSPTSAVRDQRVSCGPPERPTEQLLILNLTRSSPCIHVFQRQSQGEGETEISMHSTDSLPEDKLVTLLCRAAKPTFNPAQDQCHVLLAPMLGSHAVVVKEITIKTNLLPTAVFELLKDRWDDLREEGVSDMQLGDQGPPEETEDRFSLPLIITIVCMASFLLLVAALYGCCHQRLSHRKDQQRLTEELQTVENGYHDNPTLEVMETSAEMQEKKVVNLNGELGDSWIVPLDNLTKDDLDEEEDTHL
UniProt Q15286: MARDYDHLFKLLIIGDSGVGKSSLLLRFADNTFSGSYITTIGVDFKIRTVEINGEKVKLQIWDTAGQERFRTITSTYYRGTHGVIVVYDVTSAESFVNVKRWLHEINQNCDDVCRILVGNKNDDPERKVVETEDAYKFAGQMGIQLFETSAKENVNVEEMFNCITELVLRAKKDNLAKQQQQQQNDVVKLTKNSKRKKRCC

Biological target: GFP-PODXL^V486A/Y500A (UniProt Q28645)
Assay: co-IP; GFP-tagged proteins were immunoprecipitated from lysates of transfected H1299 cells (p53-/- or p53R273H) with an anti-GFP antibody conjugated to magnetic beads. Partners were detected by western blotting.

binding: binds
Substance: Rab35, endogenous (from UniProt Q15286 1-201)

These are yes or no findings as the source states them, for the method shown. Binding seen in cells or lysates may run through a third protein. Binding calls can cover weak binding; strength is not graded here.
